Results reported in the supplement of paper PMC6411743.
± gives the standard deviation of the averaged measurements. This is one part of the list.

Chains of the proteins cited; added tags and fusions are not shown. Lines headed by an entry give the natural chain unless they say otherwise; changes in a name come on top.
UniProt Q96IX5: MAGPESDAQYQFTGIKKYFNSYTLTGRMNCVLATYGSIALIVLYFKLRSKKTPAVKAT
UniProt Q96G28: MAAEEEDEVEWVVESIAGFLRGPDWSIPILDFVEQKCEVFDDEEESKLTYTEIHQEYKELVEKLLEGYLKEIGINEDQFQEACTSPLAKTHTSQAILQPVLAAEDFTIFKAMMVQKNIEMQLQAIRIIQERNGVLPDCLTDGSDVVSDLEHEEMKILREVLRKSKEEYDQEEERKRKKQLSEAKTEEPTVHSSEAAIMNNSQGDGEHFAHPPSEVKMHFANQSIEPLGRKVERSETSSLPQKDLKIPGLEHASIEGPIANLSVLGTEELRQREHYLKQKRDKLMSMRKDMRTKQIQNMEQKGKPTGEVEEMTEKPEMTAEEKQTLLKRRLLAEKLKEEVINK
UniProt Q8WWY3: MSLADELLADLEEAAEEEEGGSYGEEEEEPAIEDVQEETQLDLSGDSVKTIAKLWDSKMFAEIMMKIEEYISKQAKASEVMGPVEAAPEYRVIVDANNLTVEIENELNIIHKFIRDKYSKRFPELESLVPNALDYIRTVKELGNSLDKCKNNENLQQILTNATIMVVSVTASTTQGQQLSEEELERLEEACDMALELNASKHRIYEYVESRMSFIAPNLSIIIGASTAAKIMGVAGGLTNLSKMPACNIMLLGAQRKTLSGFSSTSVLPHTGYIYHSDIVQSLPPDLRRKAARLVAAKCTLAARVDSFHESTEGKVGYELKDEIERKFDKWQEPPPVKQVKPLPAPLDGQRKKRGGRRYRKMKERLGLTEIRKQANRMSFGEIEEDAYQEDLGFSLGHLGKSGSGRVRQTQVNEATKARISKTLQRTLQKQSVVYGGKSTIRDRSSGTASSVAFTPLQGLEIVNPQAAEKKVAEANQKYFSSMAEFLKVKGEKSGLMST
UniProt Q92609: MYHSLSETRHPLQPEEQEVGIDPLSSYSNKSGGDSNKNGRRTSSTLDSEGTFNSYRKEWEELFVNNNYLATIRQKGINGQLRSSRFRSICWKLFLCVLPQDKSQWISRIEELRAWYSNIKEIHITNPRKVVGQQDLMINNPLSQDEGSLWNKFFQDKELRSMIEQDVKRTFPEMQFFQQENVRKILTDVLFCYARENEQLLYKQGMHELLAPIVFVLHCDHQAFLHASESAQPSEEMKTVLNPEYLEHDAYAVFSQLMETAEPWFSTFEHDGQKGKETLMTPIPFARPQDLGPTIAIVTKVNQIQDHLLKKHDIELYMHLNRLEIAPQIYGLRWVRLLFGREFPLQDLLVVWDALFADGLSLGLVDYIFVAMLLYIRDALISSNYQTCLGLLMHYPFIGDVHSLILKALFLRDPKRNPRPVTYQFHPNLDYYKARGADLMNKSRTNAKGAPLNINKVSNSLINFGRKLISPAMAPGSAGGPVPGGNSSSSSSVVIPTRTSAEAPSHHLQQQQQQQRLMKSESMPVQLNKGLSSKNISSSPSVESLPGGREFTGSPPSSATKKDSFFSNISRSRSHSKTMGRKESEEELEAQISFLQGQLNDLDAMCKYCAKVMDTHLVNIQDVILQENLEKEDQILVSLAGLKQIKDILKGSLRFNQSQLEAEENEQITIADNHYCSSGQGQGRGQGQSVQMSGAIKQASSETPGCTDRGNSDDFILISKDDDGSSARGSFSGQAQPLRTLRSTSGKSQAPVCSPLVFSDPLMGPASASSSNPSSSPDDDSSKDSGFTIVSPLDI
UniProt Q96B26, whole entry: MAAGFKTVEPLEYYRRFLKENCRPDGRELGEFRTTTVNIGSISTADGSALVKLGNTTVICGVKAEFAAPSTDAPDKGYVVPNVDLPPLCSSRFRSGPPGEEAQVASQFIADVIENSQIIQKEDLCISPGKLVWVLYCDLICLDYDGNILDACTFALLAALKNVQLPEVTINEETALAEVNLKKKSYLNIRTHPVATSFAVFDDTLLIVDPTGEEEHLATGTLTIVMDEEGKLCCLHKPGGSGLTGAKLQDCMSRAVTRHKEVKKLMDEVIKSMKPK
UniProt Q8WXD5: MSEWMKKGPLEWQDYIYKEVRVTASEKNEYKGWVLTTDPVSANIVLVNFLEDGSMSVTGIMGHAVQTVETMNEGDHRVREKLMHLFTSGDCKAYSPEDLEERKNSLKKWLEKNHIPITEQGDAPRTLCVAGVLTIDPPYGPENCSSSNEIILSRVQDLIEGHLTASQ
UniProt Q92974: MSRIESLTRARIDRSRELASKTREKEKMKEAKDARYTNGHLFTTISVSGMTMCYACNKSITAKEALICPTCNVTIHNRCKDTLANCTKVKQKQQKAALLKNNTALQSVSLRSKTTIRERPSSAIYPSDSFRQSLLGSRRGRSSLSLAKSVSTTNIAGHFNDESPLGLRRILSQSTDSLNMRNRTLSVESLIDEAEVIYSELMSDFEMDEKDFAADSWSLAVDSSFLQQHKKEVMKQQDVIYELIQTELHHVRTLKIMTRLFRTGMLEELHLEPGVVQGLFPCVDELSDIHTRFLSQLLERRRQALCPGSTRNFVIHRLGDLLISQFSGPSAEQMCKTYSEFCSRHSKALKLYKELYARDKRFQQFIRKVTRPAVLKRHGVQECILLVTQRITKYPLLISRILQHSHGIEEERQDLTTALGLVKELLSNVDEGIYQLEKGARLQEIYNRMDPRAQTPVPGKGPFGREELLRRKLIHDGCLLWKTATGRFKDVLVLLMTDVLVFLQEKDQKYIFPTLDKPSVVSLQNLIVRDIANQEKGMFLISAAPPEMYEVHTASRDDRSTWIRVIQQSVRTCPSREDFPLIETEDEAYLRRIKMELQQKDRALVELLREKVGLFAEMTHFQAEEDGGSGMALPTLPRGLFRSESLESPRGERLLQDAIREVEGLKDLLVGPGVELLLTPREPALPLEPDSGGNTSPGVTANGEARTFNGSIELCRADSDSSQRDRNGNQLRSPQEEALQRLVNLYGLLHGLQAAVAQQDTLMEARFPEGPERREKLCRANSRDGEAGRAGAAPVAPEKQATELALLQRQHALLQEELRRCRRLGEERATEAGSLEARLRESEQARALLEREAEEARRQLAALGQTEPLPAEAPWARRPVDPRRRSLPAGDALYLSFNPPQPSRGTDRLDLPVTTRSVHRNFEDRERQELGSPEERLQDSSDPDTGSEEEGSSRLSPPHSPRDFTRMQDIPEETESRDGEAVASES
UniProt Q969S9: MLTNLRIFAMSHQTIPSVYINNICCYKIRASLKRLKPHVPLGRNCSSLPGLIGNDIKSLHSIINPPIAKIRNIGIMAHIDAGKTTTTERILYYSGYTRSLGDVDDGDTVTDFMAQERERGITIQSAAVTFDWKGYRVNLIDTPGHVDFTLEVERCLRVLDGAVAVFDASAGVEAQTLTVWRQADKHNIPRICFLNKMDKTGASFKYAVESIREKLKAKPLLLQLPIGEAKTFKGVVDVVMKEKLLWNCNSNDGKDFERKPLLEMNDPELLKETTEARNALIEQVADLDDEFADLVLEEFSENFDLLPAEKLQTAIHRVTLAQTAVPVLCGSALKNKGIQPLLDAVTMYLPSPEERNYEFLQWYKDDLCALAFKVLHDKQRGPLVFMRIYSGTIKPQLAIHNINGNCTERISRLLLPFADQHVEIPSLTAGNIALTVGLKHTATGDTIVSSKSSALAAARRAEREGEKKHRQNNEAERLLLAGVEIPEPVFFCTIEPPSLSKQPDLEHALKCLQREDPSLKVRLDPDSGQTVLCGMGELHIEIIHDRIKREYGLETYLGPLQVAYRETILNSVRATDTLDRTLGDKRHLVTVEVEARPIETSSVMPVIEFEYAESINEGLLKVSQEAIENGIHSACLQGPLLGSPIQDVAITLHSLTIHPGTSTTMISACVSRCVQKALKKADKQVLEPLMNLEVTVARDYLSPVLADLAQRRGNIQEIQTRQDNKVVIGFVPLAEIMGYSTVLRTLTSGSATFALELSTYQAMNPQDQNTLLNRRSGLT
UniProt Q969T7: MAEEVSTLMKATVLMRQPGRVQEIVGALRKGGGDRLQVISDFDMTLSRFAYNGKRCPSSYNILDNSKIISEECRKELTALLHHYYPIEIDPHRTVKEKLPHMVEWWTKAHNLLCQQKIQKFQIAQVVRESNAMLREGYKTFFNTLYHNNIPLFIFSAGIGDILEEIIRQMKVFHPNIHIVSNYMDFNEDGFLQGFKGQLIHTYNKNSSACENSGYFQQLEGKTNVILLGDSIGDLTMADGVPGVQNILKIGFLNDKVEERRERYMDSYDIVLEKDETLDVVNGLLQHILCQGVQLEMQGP
UniProt Q8WVM7: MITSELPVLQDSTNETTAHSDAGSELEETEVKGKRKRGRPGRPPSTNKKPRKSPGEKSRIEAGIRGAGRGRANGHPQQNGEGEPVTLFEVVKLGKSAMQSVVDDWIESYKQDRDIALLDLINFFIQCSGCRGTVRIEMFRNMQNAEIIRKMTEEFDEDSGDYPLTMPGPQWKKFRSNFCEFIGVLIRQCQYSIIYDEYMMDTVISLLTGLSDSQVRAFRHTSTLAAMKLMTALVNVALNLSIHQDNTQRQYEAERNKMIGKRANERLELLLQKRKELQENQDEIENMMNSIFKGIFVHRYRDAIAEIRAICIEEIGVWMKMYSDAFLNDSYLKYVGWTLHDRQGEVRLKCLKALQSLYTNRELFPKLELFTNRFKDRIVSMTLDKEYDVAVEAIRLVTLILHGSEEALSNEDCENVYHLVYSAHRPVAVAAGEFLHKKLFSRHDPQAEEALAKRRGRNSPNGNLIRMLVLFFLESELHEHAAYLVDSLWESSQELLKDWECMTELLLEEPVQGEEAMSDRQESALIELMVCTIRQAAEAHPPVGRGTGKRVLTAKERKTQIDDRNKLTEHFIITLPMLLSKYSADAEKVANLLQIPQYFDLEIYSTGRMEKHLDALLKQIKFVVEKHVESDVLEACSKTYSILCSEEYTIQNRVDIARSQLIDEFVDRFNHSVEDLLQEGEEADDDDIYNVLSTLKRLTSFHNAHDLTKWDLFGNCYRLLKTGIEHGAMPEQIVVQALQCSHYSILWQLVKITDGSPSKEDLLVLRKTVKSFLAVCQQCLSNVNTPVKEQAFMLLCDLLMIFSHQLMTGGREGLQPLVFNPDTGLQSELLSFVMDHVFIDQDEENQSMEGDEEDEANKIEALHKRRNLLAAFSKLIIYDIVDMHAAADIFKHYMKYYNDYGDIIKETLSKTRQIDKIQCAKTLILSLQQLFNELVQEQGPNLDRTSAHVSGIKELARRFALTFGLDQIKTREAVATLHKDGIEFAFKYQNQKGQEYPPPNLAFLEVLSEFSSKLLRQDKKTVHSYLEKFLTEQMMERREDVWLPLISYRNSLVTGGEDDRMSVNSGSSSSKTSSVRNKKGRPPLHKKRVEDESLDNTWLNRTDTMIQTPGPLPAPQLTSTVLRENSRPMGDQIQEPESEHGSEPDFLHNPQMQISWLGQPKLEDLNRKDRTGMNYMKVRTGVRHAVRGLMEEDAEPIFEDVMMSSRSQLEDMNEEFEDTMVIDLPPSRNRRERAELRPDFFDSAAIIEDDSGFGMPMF
UniProt Q969N2: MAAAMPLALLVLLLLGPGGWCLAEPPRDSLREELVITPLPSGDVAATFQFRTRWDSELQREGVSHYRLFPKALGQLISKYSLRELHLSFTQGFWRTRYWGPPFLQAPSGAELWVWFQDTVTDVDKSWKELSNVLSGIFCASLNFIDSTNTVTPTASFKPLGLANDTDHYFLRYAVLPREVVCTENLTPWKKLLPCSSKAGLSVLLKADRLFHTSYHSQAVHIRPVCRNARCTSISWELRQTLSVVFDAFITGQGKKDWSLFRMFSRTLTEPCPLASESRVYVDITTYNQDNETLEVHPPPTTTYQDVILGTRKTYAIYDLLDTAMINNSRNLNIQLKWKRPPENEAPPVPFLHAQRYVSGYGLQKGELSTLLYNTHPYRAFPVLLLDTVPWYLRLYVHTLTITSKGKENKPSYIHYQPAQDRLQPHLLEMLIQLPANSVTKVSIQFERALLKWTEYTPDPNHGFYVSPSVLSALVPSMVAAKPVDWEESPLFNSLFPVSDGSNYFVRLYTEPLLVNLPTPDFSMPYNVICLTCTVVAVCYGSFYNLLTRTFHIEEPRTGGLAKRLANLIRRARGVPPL
UniProt Q96IY1: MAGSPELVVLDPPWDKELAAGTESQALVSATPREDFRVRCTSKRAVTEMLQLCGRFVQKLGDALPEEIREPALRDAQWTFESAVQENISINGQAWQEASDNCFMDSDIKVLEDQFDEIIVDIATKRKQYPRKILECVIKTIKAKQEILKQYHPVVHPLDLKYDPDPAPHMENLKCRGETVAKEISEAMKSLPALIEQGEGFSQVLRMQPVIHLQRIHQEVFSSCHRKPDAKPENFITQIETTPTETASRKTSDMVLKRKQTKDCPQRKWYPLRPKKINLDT
UniProt Q92572: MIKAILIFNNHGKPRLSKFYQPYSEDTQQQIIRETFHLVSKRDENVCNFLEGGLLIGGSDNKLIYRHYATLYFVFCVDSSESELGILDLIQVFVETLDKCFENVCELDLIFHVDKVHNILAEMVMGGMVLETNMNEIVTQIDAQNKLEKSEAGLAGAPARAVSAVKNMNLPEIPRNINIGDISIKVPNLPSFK

Compound: Nc1nc2c(ncn2[C@@H]2O[C@H](COP(=O)(O)OP(=O)(O)OP(=O)(O)O)[C@@H](O)[C@H]2O)c(=O)[nH]1 [guanosine triphosphate]
Assay: NP40-soluble protein abundance relative to vehicle (solubility fold change) (ratio); higher = more soluble protein in presence of GTP
Summary of the method: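 Eight concentrations, 0.1 to 10 mM, were tested on Jurkat crude lysate for 10 min at room temperature and then 3 min at 37 °C, in three independent experiments. The lysate was solubilised with 0.8% NP40 and benzonase, ultracentrifuged, and the supernatant TMT-labelled for LC-MS/MS. Each value is the fold change against the detergent-processed vehicle in its own replicate, from vsn-normalised intensities.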

| Target | NP40-soluble protein abundance (concentration: 0.1mM) | NP40-soluble protein abundance (concentration: 0.5mM) | NP40-soluble protein abundance (concentration: 1mM) | NP40-soluble protein abundance (concentration: 2mM) | NP40-soluble protein abundance (concentration: 4mM) | NP40-soluble protein abundance (concentration: 6mM) | NP40-soluble protein abundance (concentration: 8mM) | NP40-soluble protein abundance (concentration: 10mM) |
| --- | --- | --- | --- | --- | --- | --- | --- | --- |
| UniProt Q96IX5 | 0.871 ± 0.1 | 0.881 ± 0.086 | 0.988 ± 0.15 | 1.03 ± 0.11 | 1.06 ± 0.1 | 1.01 ± 0.13 | 0.889 ± 0.099 | 1.03 ± 0.17 |
| UniProt Q96G28 and related entries | 0.842 ± 0.024 | 0.856 ± 0.057 | 0.967 ± 0.058 | 0.939 ± 0.064 | 0.854 ± 0.045 | 0.918 ± 0.1 | 0.895 ± 0.1 | 0.945 ± 0.067 |
| PRPF31 (UniProt Q8WWY3) | 1.01 ± 0.072 | 1.06 ± 0.057 | 1.06 ± 0.073 | 1.06 ± 0.11 | 1.07 ± 0.081 | 1.11 ± 0.077 | 1.1 ± 0.048 | 1.18 ± 0.092 |
| CUL5 (UniProt Q93034) | 1.1 ± 0.037 | 1.08 ± 0.07 | 1 ± 0.041 | 1.04 ± 0.081 | 1.02 ± 0.04 | 0.991 ± 0.045 | 0.972 ± 0.028 | 0.937 ± 0.038 |
| UniProt Q92609 and related entries | 0.973 ± 0.026 | 0.987 ± 0.041 | 0.982 ± 0.011 | 0.965 ± 0.05 | 0.927 ± 0.032 | 0.944 ± 0.045 | 0.97 ± 0.05 | 0.939 ± 0.067 |
| GPKOW (UniProt Q92917) | 0.974 ± 0.07 | 0.995 ± 0.067 | 1.02 ± 0.077 | 0.975 ± 0.086 | 0.968 ± 0.071 | 0.99 ± 0.059 | 0.998 ± 0.057 | 1.01 ± 0.088 |
| H1FX (UniProt Q92522) | 0.939 ± 0.087 | 0.89 ± 0.036 | 1.14 ± 0.14 | 1.11 ± 0.08 | 1.18 ± 0.13 | 1.16 ± 0.12 | 1.12 ± 0.14 | 1.41 ± 0.24 |
| EXOSC8 (UniProt Q96B26) | 1.047 ± 0.0092 | 1.052 ± 0.0058 | 1.04 ± 0.024 | 1.13 ± 0.048 | 1.17 ± 0.089 | 1.23 ± 0.088 | 1.23 ± 0.1 | 1.24 ± 0.059 |
| UniProt Q92576 and related entries | 1 ± 0.014 | 1.025 ± 0.0078 | 1.06 ± 0.012 | 1.08 ± 0.058 | 1.1 ± 0.046 | 1.12 ± 0.043 | 1.18 ± 0.13 | 1.18 ± 0.12 |
| ITPKC (UniProt Q96DU7) | 1.03 ± 0.037 | 1.06 ± 0.16 | 0.996 ± 0.074 | 0.991 ± 0.043 | 0.884 ± 0.025 | 1.02 ± 0.12 | 1.02 ± 0.025 | 0.98 ± 0.049 |
| UniProt Q8WWC4 | 0.951 ± 0.045 | 0.969 ± 0.053 | 0.943 ± 0.07 | 0.928 ± 0.04 | 0.96 ± 0.051 | 0.88 ± 0.053 | 0.892 ± 0.056 | 0.928 ± 0.05 |
| UniProt Q96JG6 | 1.05 ± 0.059 | 1.04 ± 0.039 | 1.02 ± 0.061 | 1 ± 0.013 | 1.02 ± 0.044 | 1.04 ± 0.025 | 1.01 ± 0.019 | 0.964 ± 0.012 |
| UniProt Q96B23-2 | 0.952 ± 0.11 | 0.889 ± 0.046 | 0.927 ± 0.15 | 0.886 ± 0.18 | 0.859 ± 0.099 | 0.857 ± 0.13 | 0.872 ± 0.12 | 0.904 ± 0.13 |
| GEMIN6 (UniProt Q8WXD5) | 1.05 ± 0.048 | 1.06 ± 0.064 | 1.2 ± 0.065 | 1.12 ± 0.14 | 1.17 ± 0.067 | 1.17 ± 0.075 | 1.21 ± 0.14 | 1.24 ± 0.12 |
| UniProt Q92974 and related entries | 1.03 ± 0.015 | 1.05 ± 0.023 | 1.02 ± 0.032 | 1.04 ± 0.052 | 1.08 ± 0.075 | 1.07 ± 0.082 | 1.09 ± 0.065 | 1.05 ± 0.039 |
| PPWD1 (UniProt Q96BP3) | 1.05 ± 0.074 | 1.03 ± 0.042 | 0.989 ± 0.074 | 1.08 ± 0.12 | 1.14 ± 0.12 | 1.13 ± 0.084 | 1.12 ± 0.074 | 1.17 ± 0.16 |
| FUBP3 (UniProt Q96I24) | 0.958 ± 0.053 | 0.948 ± 0.065 | 0.951 ± 0.066 | 0.919 ± 0.089 | 0.907 ± 0.073 | 0.916 ± 0.076 | 0.927 ± 0.054 | 0.914 ± 0.069 |
| LRRC59 (UniProt Q96AG4) | 0.887 ± 0.03 | 0.904 ± 0.078 | 1.03 ± 0.053 | 1.01 ± 0.086 | 1.06 ± 0.065 | 1.09 ± 0.088 | 1.13 ± 0.068 | 1.16 ± 0.061 |
| TESC (UniProt Q96BS2) | 1.01 ± 0.035 | 0.983 ± 0.071 | 0.985 ± 0.095 | 0.968 ± 0.16 | 0.907 ± 0.074 | 0.932 ± 0.092 | 0.926 ± 0.073 | 0.915 ± 0.09 |
| UniProt Q96F44 and related entries | 1.03 ± 0.13 | 1.09 ± 0.047 | 1.05 ± 0.093 | 1.06 ± 0.036 | 1.02 ± 0.08 | 1.07 ± 0.053 | 1.05 ± 0.11 | 1.02 ± 0.048 |
| UniProt Q969S9 and related entries | 0.999 ± 0.11 | 1.03 ± 0.051 | 0.971 ± 0.12 | 0.981 ± 0.12 | 0.981 ± 0.084 | 0.969 ± 0.1 | 0.972 ± 0.15 | 0.921 ± 0.074 |
| UniProt Q969T7 and related entries | 1.04 ± 0.015 | 0.963 ± 0.031 | 0.947 ± 0.02 | 0.96 ± 0.025 | 0.885 ± 0.075 | 0.869 ± 0.025 | 0.878 ± 0.023 | 0.839 ± 0.038 |
| NUP133 (UniProt Q8WUM0) | 1.04 ± 0.018 | 1.06 ± 0.053 | 1.05 ± 0.072 | 1.06 ± 0.078 | 1.09 ± 0.073 | 1.1 ± 0.093 | 1.1 ± 0.073 | 1.12 ± 0.086 |
| PNPLA2 (UniProt Q96AD5) | 1.01 ± 0.038 | 0.995 ± 0.099 | 0.981 ± 0.03 | 1.03 ± 0.047 | 0.959 ± 0.092 | 0.973 ± 0.15 | 0.956 ± 0.031 | 0.9718 ± 0.0044 |
| UniProt Q96CU9 and related entries | 1.09 ± 0.048 | 1.08 ± 0.07 | 0.999 ± 0.07 | 1.02 ± 0.088 | 1.04 ± 0.076 | 1.06 ± 0.11 | 1.02 ± 0.046 | 0.976 ± 0.06 |
| UniProt Q8WVM7 and related entries | 1.05 ± 0.04 | 1.08 ± 0.07 | 1.04 ± 0.014 | 1.09 ± 0.064 | 1.04 ± 0.081 | 1.03 ± 0.068 | 1.01 ± 0.073 | 0.99 ± 0.046 |
| UniProt Q969N2 and related entries | 1.07 ± 0.075 | 1.08 ± 0.13 | 0.948 ± 0.12 | 1 ± 0.1 | 0.953 ± 0.078 | 0.982 ± 0.14 | 0.92 ± 0.059 | 0.941 ± 0.031 |
| UniProt Q96EK5 | 1.06 ± 0.052 | 1.01 ± 0.053 | 1.018 ± 0.0048 | 0.969 ± 0.026 | 0.973 ± 0.047 | 0.934 ± 0.034 | 0.927 ± 0.025 | 0.888 ± 0.079 |
| NSL1 (UniProt Q96IY1) | 1.02 ± 0.028 | 0.966 ± 0.024 | 0.999 ± 0.058 | 0.966 ± 0.053 | 1.03 ± 0.074 | 0.994 ± 0.039 | 0.995 ± 0.064 | 0.932 ± 0.06 |
| UniProt Q92572 | 1.03 ± 0.088 | 1 ± 0.054 | 1.03 ± 0.057 | 0.978 ± 0.051 | 0.997 ± 0.053 | 0.976 ± 0.054 | 1 ± 0.079 | 0.966 ± 0.051 |

An excerpt of these results, with tabs:
Target	NP40-soluble protein abundance (concentration: 0.1mM)	NP40-soluble protein abundance (concentration: 0.5mM)	NP40-soluble protein abundance (concentration: 1mM)	NP40-soluble protein abundance (concentration: 2mM)	NP40-soluble protein abundance (concentration: 4mM)	NP40-soluble protein abundance (concentration: 6mM)	NP40-soluble protein abundance (concentration: 8mM)	NP40-soluble protein abundance (concentration: 10mM)
UniProt Q96JG6	1.05 ± 0.059	1.04 ± 0.039	1.02 ± 0.061	1 ± 0.013	1.02 ± 0.044	1.04 ± 0.025	1.01 ± 0.019	0.964 ± 0.012
UniProt Q96B23-2	0.952 ± 0.11	0.889 ± 0.046	0.927 ± 0.15	0.886 ± 0.18	0.859 ± 0.099	0.857 ± 0.13	0.872 ± 0.12	0.904 ± 0.13
